From publication PMC7613766 come the findings set out here.

The chains behind the UniProt entries cited, without tags or fusion partners.
UniProt Q99684: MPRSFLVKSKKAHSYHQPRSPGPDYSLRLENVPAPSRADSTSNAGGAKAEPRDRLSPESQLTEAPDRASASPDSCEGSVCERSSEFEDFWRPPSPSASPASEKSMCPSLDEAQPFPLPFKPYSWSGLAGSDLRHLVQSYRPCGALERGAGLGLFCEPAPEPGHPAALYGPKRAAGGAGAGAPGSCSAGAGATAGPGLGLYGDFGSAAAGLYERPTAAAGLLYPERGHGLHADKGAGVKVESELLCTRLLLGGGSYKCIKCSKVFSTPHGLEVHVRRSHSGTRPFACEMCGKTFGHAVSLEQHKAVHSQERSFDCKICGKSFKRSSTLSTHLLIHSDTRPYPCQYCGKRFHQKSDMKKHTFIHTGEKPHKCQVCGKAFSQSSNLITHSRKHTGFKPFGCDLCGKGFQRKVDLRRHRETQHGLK
UniProt Q9UKL0: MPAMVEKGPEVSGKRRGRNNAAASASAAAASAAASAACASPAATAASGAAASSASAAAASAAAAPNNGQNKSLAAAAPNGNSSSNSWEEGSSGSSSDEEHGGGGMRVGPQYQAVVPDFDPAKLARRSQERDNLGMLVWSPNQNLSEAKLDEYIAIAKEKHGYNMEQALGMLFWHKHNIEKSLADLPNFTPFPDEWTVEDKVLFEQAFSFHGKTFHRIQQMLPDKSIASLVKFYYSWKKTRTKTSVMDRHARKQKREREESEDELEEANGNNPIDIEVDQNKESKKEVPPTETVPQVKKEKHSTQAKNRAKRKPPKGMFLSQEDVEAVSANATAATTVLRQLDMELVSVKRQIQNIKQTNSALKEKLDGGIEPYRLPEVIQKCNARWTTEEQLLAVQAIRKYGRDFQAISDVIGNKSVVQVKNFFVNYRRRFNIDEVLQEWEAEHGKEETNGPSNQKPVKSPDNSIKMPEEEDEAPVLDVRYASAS

Assay [1] addresses T1, HMG20B (human (endogenous in THP1)) (UniProt Q9P0W2).
T1 sequence: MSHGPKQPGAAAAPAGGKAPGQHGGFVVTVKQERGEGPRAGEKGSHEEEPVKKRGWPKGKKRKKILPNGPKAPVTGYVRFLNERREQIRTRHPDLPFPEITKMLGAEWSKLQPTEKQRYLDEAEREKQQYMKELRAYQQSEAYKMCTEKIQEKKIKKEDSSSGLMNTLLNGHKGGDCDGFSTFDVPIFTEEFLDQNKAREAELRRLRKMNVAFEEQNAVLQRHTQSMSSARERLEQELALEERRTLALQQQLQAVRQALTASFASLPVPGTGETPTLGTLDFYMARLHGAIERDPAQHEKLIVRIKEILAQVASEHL
The experiment in a line: co-IP; nuclear immunoprecipitation in THP1 AML cells in the presence of benzonase to digest nucleic acid; western.

The target of assay [2] is T1, HMG20B (human (endogenous in THP1)). The experiment in a line: co-IP; reciprocal IP-western for HMG20B and LSD1, nuclear lysates of THP1 AML cells treated with 250 nM OG86 or DMSO for 48 h.
For assay [3], the target named is GFI1 (human (endogenous in THP1)) (UniProt Q99684). The experiment in a line: co-IP; nuclear immunoprecipitation in THP1 AML cells in the presence of benzonase to digest nucleic acid; western.

No constants are given. Whether binding was seen depends on the method and setting. Binding seen in cells or lysates may run through a third protein. Some results given as binding are weak or reduced against the parent protein; the word gives no strength.

As to GFI1 (from UniProt Q99684 1-422), the binding result in assay [1] is listed as “no binding”. RCOR1 (from UniProt Q9UKL0 1-485): the binding result in assay [2] is reported as “binds”.

B1: HMG20B (protein, UniProt Q9P0W2 1-317)
chain: MSHGPKQPGAAAAPAGGKAPGQHGGFVVTVKQERGEGPRAGEKGSHEEEPVKKRGWPKGKKRKKILPNGPKAPVTGYVRFLNERREQIRTRHPDLPFPEITKMLGAEWSKLQPTEKQRYLDEAEREKQQYMKELRAYQQSEAYKMCTEKIQEKKIKKEDSSSGLMNTLLNGHKGGDCDGFSTFDVPIFTEEFLDQNKAREAELRRLRKMNVAFEEQNAVLQRHTQSMSSARERLEQELALEERRTLALQQQLQAVRQALTASFASLPVPGTGETPTLGTLDFYMARLHGAIERDPAQHEKLIVRIKEILAQVASEHL
Turning to B1, the binding entry in assay [3] is recorded as “no binding”.
